# Screening data

Source: PubChem BioAssay AID1347107 (NCATS, 2019).

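Rh30 rhabdomyosarcoma cell line exposed to compounds for 48 h, with viable metabolically active cells gauged by CellTiter-Glo light output. Compounds ran as dilution series reaching 46 µM at the top, from about 0.78 nM for the 11-point MIPE set. The number is the fitted AC50 potency for loss of cell viability; a lower value means a more potent cytotoxic effect. Calls come from curve class and an activity score: actives score 40 to 100, inconclusives 1 to 39 (weak, partial, poorly fitted or top-dose-only curves), and inactives score 0.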

Values are in µM. All entries here are filed as inconclusive. Only part of the assay is shown, chiefly results filed as inconclusive. Potencies fitted to partial, single-point or poorly fitting curves are rough. Some entries filed as inconclusive have a full curve. Activity scores are not listed here. An entry listed twice with the same setting is a separate test.

structure,potency (µM),curve as filed
CCCCCCCCCCCCCCCC[N+](C)(C)C,16.79,"cytotoxic, partial curve"
Fc1ccc(C(OCCN2CCN(CCCc3ccccc3)CC2)c2ccc(F)cc2)cc1,26.35,"cytotoxic, single point"
O=C(CCCCCCC(=O)Nc1ccccc1)NO,8.414,"cytotoxic, partial curve"
CNC(=O)[C@H](Cc1ccccc1)NC(=O)[C@H](CC(C)C)[C@H](CSc1cccs1)C(=O)NO,14.82,"cytotoxic, partial curve"
CC(=O)O[C@]1(C(C)=O)CC[C@H]2[C@@H]3C=C(Cl)C4=CC(=O)[C@@H]5C[C@@H]5[C@]4(C)[C@H]3CC[C@@]21C,23.72,"cytotoxic, single point"
COc1cc(Nc2nc3ccccc3nc2NS(=O)(=O)c2ccc(NC(=O)c3ccc(C)c(OC)c3)cc2)cc(OC)c1,18.65,"cytotoxic, partial curve"
COc1cc([C@H]2Oc3cc([C@H]4Oc5cc(O)cc(O)c5C(=O)[C@H]4O)ccc3O[C@H]2CO)ccc1O,18.65,"cytotoxic, partial curve"
CCn1c(C(=O)N(C2CC2)C2CC2)cc2c3c(ncn3C)c(Nc3cc(C)n(C)n3)nc21,29.57,"cytotoxic, single point"
Nc1ncnc2c1nc(Cl)n2[C@@H]1O[C@H](CO)[C@@H](O)[C@@H]1O,18.65,"cytotoxic, partial curve"
CC(C)(C)c1cc(C(=O)O)c(NC(=O)Nc2ccc3[nH]ncc3c2)s1,10.49,"cytotoxic, partial curve"
Cc1cc(-c2ccc(CC(=O)Nc3ccc(-c4cccnc4)cc3)cc2)ccn1,14.82,"cytotoxic, partial curve, poor fit"
CN(C)S(=O)(=O)c1ccc2c(c1)C(=Cc1cc3c([nH]1)CCCC3)C(=O)N2,18.65,"cytotoxic, partial curve"
O=C(O)c1c(Cl)c(Cl)c(Cl)c(Cl)c1-c1c2cc(I)c(=O)c(I)c-2oc2c(I)c(O)c(I)cc12,9.35,"cytotoxic, partial curve"
Cc1cc(=O)c2c(O)c3c(O)cc(=O)c4c3c3c(cc(O)c1c23)C(C)(C)C=4O,1.3,"cytotoxic, partial curve, poor fit"
CCCCCCCCOc1ccccc1C(=O)Nc1ccc(C(=O)OCC[N+](C)(CC)CC)cc1,33.5,"cytotoxic, partial curve, poor fit"
CNC1CCC(N(Cc2cccc(-c3ccncc3)c2)C(=O)c2sc3ccccc3c2Cl)CC1 (stereo not given),33.17,"cytotoxic, single point"
CC(C)c1ccc2c(c1)c(SC(C)(C)C)c(CC(C)(C)C(=O)O)n2Cc1ccc(Cl)cc1,13.21,"cytotoxic, partial curve"
Cc1cc(C2CCCCC2)n(O)c(=O)c1,2.114,"cytotoxic, full curve"
Cc1ccccc1-n1c(Cn2cnc3c(N)ncnc32)nc2cccc(C)c2c1=O,0.8333,"cytotoxic, full curve"
Cc1c(CN2CCN(S(C)(=O)=O)CC2)sc2c(N3CCOCC3)nc(-c3cnc(N)nc3)nc12,0.5258,"cytotoxic, full curve"
O=c1cc(N2CCOCC2)oc2c(-c3ccccc3)cccc12,13.21,"cytotoxic, partial curve"
Cc1nc(Nc2n[nH]c3c2CN(C(=O)N[C@H](CN(C)C)c2ccccc2)C3(C)C)c2sccc2n1,0.2348,"cytotoxic, partial curve, poor fit"
Oc1ccc(-c2ccc(-c3cc(Nc4cccc(CNC5CC5)c4)n[nH]3)cc2)c(O)c1,2.349,"cytotoxic, partial curve"
NC(=O)c1cccc(-c2cc(Nc3ccc(OC(F)(F)F)cc3)ncn2)c1,7.427,"cytotoxic, partial curve, poor fit"
CC(C)C[C@@H](C(=O)N[C@H](C(=O)OC1CCCC1)c1ccccc1)[C@H](O)C(=O)NO,14.82,"cytotoxic, partial curve"
CC[C@H]1OC(=O)[C@H](C)C(=O)[C@H](C)[C@@H](O[C@H]2O[C@H](C)C[C@H](N(C)C)[C@@H]2O)[C@](C)(OC)C[C@@H](C)C(=O)[C@H](C)[C@H]2N(CCCCn3cnc(-c4cccnc4)c3)C(=O)O[C@]12C,16.63,"cytotoxic, partial curve"
COCCNCCCn1c(C(=O)CF)c(-c2ccc(C)cc2)c2c(N)ncnc21,5.899,"cytotoxic, partial curve"
CN1CCC(=C2c3ccccc3CC(=O)c3sccc32)CC1,20.93,"cytotoxic, partial curve"
O=C(CCCCCCC(=O)Nc1ccccc1)NO,9.35,"cytotoxic, partial curve"
CC(C)(C)c1ccc(C(=O)CCCN2CCC(OC(c3ccccc3)c3ccccc3)CC2)cc1,29.86,"cytotoxic, single point"
Cc1cc(=O)c2c(O)c3c(O)cc(=O)c4c3c3c(cc(O)c1c23)C(C)(C)C=4O,5.899,"cytotoxic, partial curve"
COCCOC(=O)C1=C(C)NC2=C(C(=O)CC(c3ccccc3OC)C2)C1c1cccc(O)c1 (stereo not given),26.35,"cytotoxic, single point"
NC(=O)[C@@H](CCC(F)(F)F)N(Cc1ccc(-c2ncon2)cc1F)S(=O)(=O)c1ccc(Cl)cc1,13.21,"cytotoxic, partial curve"
COC(=O)N1CCN(Cc2cccc(NC(=O)Nc3ccc(C)nc3)c2F)CC1,16.63,"cytotoxic, partial curve"
Nc1ccccc1N,19.33,"cytotoxic, partial curve, poor fit"
COc1cc2nccc(Oc3ccc(NC(=O)Nc4ccc(F)cc4F)c(F)c3)c2cc1OC,6.619,"cytotoxic, partial curve, poor fit"
CCN(CC)CCCC(C)Nc1c2ccc(Cl)cc2nc2ccc(OC)cc12 (stereo not given),14.96,"cytotoxic, partial curve, poor fit"
Cc1c(O)cccc1C(=O)N[C@@H](CSc1ccccc1)[C@H](O)CN1C[C@H]2CCCC[C@@H]2C[C@@H]1C(=O)NC(C)(C)C,20.93,"cytotoxic, partial curve"